Here are results for 36 compounds from the supplement of paper PMC9135407.

This test deals with primary human hepatic stellate cells (donor 1). In words: percent Bodipy-positive cells; higher = more lipid droplet accumulation. Conditions: 48 h.
The mark [1] stands for this setting: library stock concentration: 3.33 mM.
Setting [2] is: library stock concentration: 10 mM.
[3] abbreviates: library stock concentration: 80 uM.
Setting [4] is: library stock concentration: 400 uM.
Where [5] appears, read: library stock concentration: 2 mM.
The mark [6] stands for this setting: library stock concentration: 1 mM.
The mark [7] stands for this setting: library stock concentration: 7.9 mM.

Where “and” joins values, the source holds several entries; their conditions need not be identical. Identical values can stand only once. Counter-ions that a name gives are not always drawn. ± gives the standard deviation of the averaged measurements. Some of the results follow. Plates or batches differ in their baseline, so values are only roughly comparable.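 Assay uses culture-activated primary human stellate myofibroblasts; lipid droplet recovery indicates inactivation. Measured: proportion of Hoechst-counted cells over a plate-specific Bodipy cutoff, duplicate wells, DMSO and nortriptyline as per-plate negative and positive controls. A hit scores, control-normalized, above the plate's top-tenth-percentile nortriptyline wells or ranks among its three best wells. Final well concentrations not reported.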

Take `Cc1ccc(-n2sc(=O)n(Cc3ccc(F)cc3)c2=O)cc1`: the “percent Bodipy-positive cells” value under setting [1] is 30.5 ± 1.7% and the “percent Bodipy-positive cells” value under setting [2] turned out to be 87.1 ± 2%. As for `Cl.O[C@H](CNC[C@@H](O)[C@H]1CCc2cc(F)ccc2O1)[C@@H]1CCc2cc(F)ccc2O1` [Nebivolol hydrochloride], the “percent Bodipy-positive cells” value under setting [2] is 84.9 ± 0.97%.

Turning to `CN(C)CCCSC(=N)N` [Dimaprit dihydrochloride], the “percent Bodipy-positive cells” value amounted to 8.33 ± 5.9%. The “percent Bodipy-positive cells” value under setting [2] was 6.6 ± 1.3%. Take `CN(C)CCOc1ccc(-c2nc(-c3ccncc3)c(-c3ccc4c(c3)CC/C4=N\O)[nH]2)cc1`: the “percent Bodipy-positive cells” value under setting [3] was 22.5 ± 6.2%; the “percent Bodipy-positive cells” value under setting [4] is 35.8% and 54%; the “percent Bodipy-positive cells” value under setting [2] was 87.5% and 98.3% and 100%. With `NCCNCCNCCN` [Trientine hydrochloride], under “library stock concentration: 9.1 mM”, the “percent Bodipy-positive cells” value stood at 10.9 ± 5%. With `CCCC(CCC)C(=O)O[C@H]1C[C@H]2CC[C@@H](C1)[N+]2(C)C` [Anisotropine methyl bromide], under setting [2], the “percent Bodipy-positive cells” value was found to be 21.5 ± 3.5%.

On to `Cc1onc(-c2c(F)cccc2Cl)c1C(=O)N[C@@H]1C(=O)N2[C@@H]1SC(C)(C)[C@@H]2C(=O)O` [Flucloxacillin sodium], for which the “percent Bodipy-positive cells” value came out at 9.84 ± 2.7%. Consider `C=CCNC(=O)c1cc([N+](=O)[O-])cc2c(=O)[nH]c(Nc3ccc(Cl)c(Cl)c3)nc12`, for which the “percent Bodipy-positive cells” value under setting [2] worked out at 5.96 ± 0.71%.

Take `C[C@H](Cc1cc2c(c(C(N)=O)c1)N(CCCO)CC2)NCCOc1ccccc1OCC(F)(F)F` [Silodosin]: the “percent Bodipy-positive cells” value by setting is: under setting [1], 13.9 ± 6.2%; under setting [2], 29.1 ± 5%. As to `CN1CCN(Cc2ccc(-c3cnc4[nH]cc(-c5ccc6[nH]ccc6c5)c4c3)cc2)CC1`, the “percent Bodipy-positive cells” value under setting [5] worked out at 97 ± 2.4%. Turning to `CN1[C@@H]2CC[C@H]1CC(OC(=O)c1c[nH]c3ccccc13)C2` (stereo not given in full) [3-Tropanyl-indole-3-carboxylate hydrochloride], the “percent Bodipy-positive cells” value under setting [2] amounted to 67.6 ± 1.4%.

Take `CCCCCCCCCCCCCCCCCCOCC(COP(=O)([O-])OCC[N+](C)(C)C)OC` (stereo not given): the “percent Bodipy-positive cells” value under setting [2] came out at 84.7 ± 14%. `CC(C)c1ccc2c(c1)CC[C@H]1[C@](C)(CN)CCC[C@]21C.Cl` [Leelamine (hydrochloride)]: under setting [6], the “percent Bodipy-positive cells” value is 33.9 ± 2.2%.

`CC[C@]1(O)C[C@H]2CN(CCc3c([nH]c4ccccc34)[C@@](C(=O)OC)(c3cc4c(cc3OC)N(C)[C@H]3[C@@](O)(C(=O)OC)[C@H](OC(C)=O)[C@]5(CC)C=CCN6CC[C@]43[C@@H]65)C2)C1.O=S(=O)(O)O` [Vinblastine sulfate]: the “percent Bodipy-positive cells” value under setting [2] came out at 96.7 ± 1.4%.

As to `CCCCC[C@H](O)/C=C/[C@@H]1[C@@H](C/C=C/CCCC(=O)O)[C@H](O)C[C@H]1O` [5-trans Prostaglandin F2.beta.], the “percent Bodipy-positive cells” value under setting [6] was determined as 13.4 ± 0.77%.

Take `COc1cc(C(C)=O)ccc1OCCCN1CCC(c2noc3cc(F)ccc23)CC1` [Iloperidone]: the “percent Bodipy-positive cells” value reads like this: under setting [1], 19.3 ± 2.2%; under setting [2], 64.5 ± 4.3%. For `CCOC(=O)[C@H](CCc1ccccc1)N[C@H]1CCCN2CCC[C@@H](C(=O)O)N2C1=O` [Cilazapril Monohydrate], the “percent Bodipy-positive cells” value reads like this: under setting [1], 12.2 ± 5.6%; under setting [2], 35 ± 17%.

For the compound `CCCC1O[C@@H]2C[C@H]3[C@@H]4CCC5=CC(=O)C=C[C@]5(C)[C@H]4[C@@H](O)C[C@]3(C)[C@]2(C(=O)CO)O1` (stereo not given in full) [Budesonide], the “percent Bodipy-positive cells” value turned out to be 17.67 ± 0.12%. In addition, the “percent Bodipy-positive cells” value under setting [1] worked out at 8.76 ± 1.7%. Regarding `CCCC1O[C@@H]2C[C@H]3[C@@H]4CCC5=CC(=O)C=C[C@]5(C)[C@H]4[C@@H](O)C[C@]3(C)[C@]2(C(=O)CO)O1` (stereo not given in full), the “percent Bodipy-positive cells” value under setting [2] is 20.9 ± 4%.

`NCCC1CCCC(CCN)N1` (stereo not given) [MDL 26,630 trihydrochloride]: the “percent Bodipy-positive cells” value under setting [2] is 32.6 ± 12%. For the compound `CC(C)n1nnc2cc(C(=O)O)ccc21`, the “percent Bodipy-positive cells” value under setting [2] was 7.26 ± 0.41%. Same read-out and setting: then `Fc1ccc([C@@H]2CCNC[C@H]2COc2ccc3c(c2)OCO3)cc1.O=C(O)/C=C\C(=O)O` [Paroxetine], with 99.27 ± 0.23%. As for `C[C@H](NC(=O)C(C#N)=Cc1cccc(Br)n1)c1ccccc1`, under setting [1], the “percent Bodipy-positive cells” value came to 89.1 ± 2.3%. Turning to `COc1cc(C(O)CO)ccc1OS(=O)(=O)O` (stereo not given) [MHPG sulfate potassium], the “percent Bodipy-positive cells” value under setting [2] was found to be 43.7 ± 1.3%.

`c1cc(-c2cnn3cc(-c4ccc(N5CCNCC5)cc4)cnc23)c2cccnc2c1`: the “percent Bodipy-positive cells” value was determined as 100% under setting [1] and 91.9 ± 5.3% under setting [2]. Regarding `CC(C(=O)O)c1cccc(C(=O)c2ccccc2)c1` (stereo not given) [Ketoprofen], the “percent Bodipy-positive cells” value came to 32.2 ± 4.5%. In addition, under setting [6], the “percent Bodipy-positive cells” value was 10.4 ± 2.3%. Besides, the “percent Bodipy-positive cells” value under setting [1] was 5.85 ± 3.1%. In addition, under setting [7], the “percent Bodipy-positive cells” value is 8.88% and 16.9%. Under setting [2], the “percent Bodipy-positive cells” value was 12.2% and 11.4% and 24.2%. For `CC(C(=O)O)c1cccc(C(=O)c2ccccc2)c1` (stereo not given) [Ketoprofen (s)], under setting [7], the “percent Bodipy-positive cells” value came out at 7.97 ± 2.2%. Turning to `C=C1CC2(O)OC3(CC2C(C)C)C(C)CCC13` (stereo not given) [Curcumol], the “percent Bodipy-positive cells” value reads like this: under setting [1], 6.37 ± 2.3%; under setting [2], 9.15 ± 3.8%. For `O=C(O)Cc1ccc(OCCNC[C@H](O)c2ccccc2)cc1` [ZD 2079 hydrochloride], the “percent Bodipy-positive cells” value under setting [2] was 7.68 ± 4.4%. Regarding `CC(C1=C(CCN(C)C)Cc2ccccc21)c1ccccn1` (stereo in doubt) [(S)-(+)-Dimethindene maleate], under setting [2], the “percent Bodipy-positive cells” value worked out at 25.7 ± 8.3%. As for `Cc1[nH]c(/C=C2\C(=O)Nc3ccc(S(=O)(=O)Cc4c(Cl)cccc4Cl)cc32)c(C)c1C(=O)N1CCC[C@@H]1CN1CCCC1`, the “percent Bodipy-positive cells” value is, setting by setting: under setting [3], 99.84 ± 0.23%; under setting [4], 100%; under setting [5], 100%. On to `CCCCN(Cc1ccc(C(=O)NO)cc1)C(=O)Nc1ccccc1` [Nexturastat A], for which the “percent Bodipy-positive cells” value under setting [1] stood at 37.3 ± 11% and the “percent Bodipy-positive cells” value under setting [2] was determined as 58.4 ± 7.1%. Consider `COC(=O)N[C@H](C(=O)N1CCC[C@H]1c1ncc(-c2ccc(-c3ccc(-c4cnc([C@@H]5CCCN5C(=O)[C@@H](NC(=O)OC)C(C)C)[nH]4)cc3)cc2)[nH]1)C(C)C`, for which, under setting [1], the “percent Bodipy-positive cells” value worked out at 33.6 ± 0.97%.

As for `COc1cc(N2CCC(N3CCN(C)CC3)CC2)ccc1Nc1ncc(Cl)c(-c2c[nH]c3ccccc23)n1`, the “percent Bodipy-positive cells” value came out at 64.5 ± 6.5% under setting [5] and 74 ± 5.2% under setting [2]. As for `O=C1O/C(=C/Br)CCC1c1cccc2ccccc12` (stereo not given) [Bromoenol lactone], under setting [6], the “percent Bodipy-positive cells” value amounted to 10.3 ± 4.3%.

Regarding `Cc1cc(C)c2c(c1)[C@@H](N(Cc1cc(C(F)(F)F)cc(C(F)(F)F)c1)c1nnn(C)n1)CCCN2C[C@H]1CC[C@H](C(=O)O)CC1`, the “percent Bodipy-positive cells” value reads like this: under setting [1], 7.92 ± 3.7%; under setting [2], 13.2 ± 0.76%.
